Experimental data: PubChem BioAssay AID1259405 (NCATS, 2018)

- Assay: 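Silenced genes that increase secreted GFP made by CHO cells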 (primary screen)
- Cell system: Chinese hamster CHO-K1 ovary cells with stable secreted eGFP expression
- Reagents: single siRNA against mouse genes, 0.8 pmol siRNA per well (2 µl of 400 nM stock)
- Duration: 3 days
- Read-out: 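Per-well intracellular GFP measured by laser scanning cytometry, plus viability from ATP luminescence, each relative to plate median of non-targeting control wells, in %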
- Direction: GFP, % of control: higher = more GFP per well, higher productivity; viability (ATP), % of control: higher = more viable cells (more ATP)
- Active means: 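Called active when intracellular GFP, relative to negative control, is at or above 120%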
Shown is an unselected part of about 50,000 deposited reagents. Over the whole deposit, about 4,000 (8%) are marked active. 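Mouse siRNA library applied to hamster cells; one well for each siRNA.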 A number with no mark means an inactive call. The numbers tell different reagents against one gene apart. Reagent sequences are not shown.

For Ntrk3 (neurotrophic tyrosine kinase, receptor, type 3) #1, how do the results read?
GFP, % of control: 27.5; viability (ATP), % of control: 26.9

How did the screen score Ntrk3 (neurotrophic tyrosine kinase, receptor, type 3) #2?
GFP, % of control: 82.6; viability (ATP), % of control: 50.3

With Ntrk3 (neurotrophic tyrosine kinase, receptor, type 3) #3, how do the results read?
GFP, % of control: 109; viability (ATP), % of control: 72.4

For Mrpl11 (mitochondrial ribosomal protein L11) #1, what was measured?
GFP, % of control: 85.2; viability (ATP), % of control: 77.1

What is on record for Mrpl11 (mitochondrial ribosomal protein L11) #2?
GFP, % of control: 108; viability (ATP), % of control: 87.6

How did the screen score Mrpl11 (mitochondrial ribosomal protein L11) #3?
GFP, % of control: 92.7; viability (ATP), % of control: 90.8

With Snrpg (small nuclear ribonucleoprotein polypeptide G) #1, what does the deposit list?
GFP, % of control: 96.9; viability (ATP), % of control: 107

What did the screen give for Snrpg (small nuclear ribonucleoprotein polypeptide G) #2?
GFP, % of control: 110; viability (ATP), % of control: 83.1

With Best1 (bestrophin 1) #1, what does the deposit list?
GFP, % of control: 109; viability (ATP), % of control: 84.7

With Best1 (bestrophin 1) #2, what does the deposit list?
GFP, % of control: 82.8; viability (ATP), % of control: 65

Which result is listed for Best1 (bestrophin 1) #3?
GFP, % of control: 155 (active); viability (ATP), % of control: 98.8

For Csrp3 (cysteine and glycine-rich protein 3) #1, what does the deposit list?
GFP, % of control: 5.16; viability (ATP), % of control: 21.4

With Csrp3 (cysteine and glycine-rich protein 3) #2, how do the results read?
GFP, % of control: 49.6; viability (ATP), % of control: 59.5

As entered above:
Ntrk3 (neurotrophic tyrosine kinase, receptor, type 3) #3, GFP, % of control: 109
Under “viability (ATP), % of control”, Snrpg (small nuclear ribonucleoprotein polypeptide G) #1 reads 107
Entry for Snrpg (small nuclear ribonucleoprotein polypeptide G) #2 in “GFP, % of control”: 110
Mrpl11 (mitochondrial ribosomal protein L11) #2, viability (ATP), % of control = 87.6

Additional records follow:
What did the screen give for Chchd1 (coiled-coil-helix-coiled-coil-helix domain containing 1) #1?
GFP, % of control: 56.8; viability (ATP), % of control: 72.3

Which result is listed for Chchd1 (coiled-coil-helix-coiled-coil-helix domain containing 1) #2?
GFP, % of control: 81.8; viability (ATP), % of control: 75.4

How did the screen score Chchd1 (coiled-coil-helix-coiled-coil-helix domain containing 1) #3?
GFP, % of control: 72.8; viability (ATP), % of control: 93.8

With H2ac1 (H2A clustered histone 1) #1, how do the results read?
GFP, % of control: 40.2; viability (ATP), % of control: 75.3

How did the screen score H2ac1 (H2A clustered histone 1) #2?
GFP, % of control: 81; viability (ATP), % of control: 105

With H2ac1 (H2A clustered histone 1) #3, what does the deposit list?
GFP, % of control: 53.3; viability (ATP), % of control: 51.5

With Anxa13 (annexin A13) #1, what was measured?
GFP, % of control: 89.9; viability (ATP), % of control: 90.6

With Anxa13 (annexin A13) #2, what was measured?
GFP, % of control: 64.8; viability (ATP), % of control: 45.8

For Anxa13 (annexin A13) #3, what was measured?
GFP, % of control: 54.4; viability (ATP), % of control: 64.8

What is on record for Atp11b (ATPase, class VI, type 11B) #1?
GFP, % of control: 65.3; viability (ATP), % of control: 47.3

What did the screen give for Atp11b (ATPase, class VI, type 11B) #2?
GFP, % of control: 88; viability (ATP), % of control: 92.5

What is on record for Atp11b (ATPase, class VI, type 11B) #3?
GFP, % of control: 49.2; viability (ATP), % of control: 71

Which result is listed for Vmn1r232 (vomeronasal 1 receptor 232) #1?
GFP, % of control: 209 (active); viability (ATP), % of control: 75.6

For Vmn1r232 (vomeronasal 1 receptor 232) #2, what was measured?
GFP, % of control: 65.7; viability (ATP), % of control: 83.7

With Vmn1r232 (vomeronasal 1 receptor 232) #3, what was measured?
GFP, % of control: 104; viability (ATP), % of control: 79.5
